Data from the ROBIN nucleic acid binder screens, doi:10.1002/anie.202211358.

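Each compound is printed as two spots on a slide made to bind it covalently, so it has no test concentration; the read-out is fluorescence of the bound, labelled oligonucleotide. For the PreQ1, TPP and SAM-II riboswitches the laboratory earlier reported (doi:10.1038/s41467-019-09493-3) 1 µM RNA, 2 h, and a rule that included a mean Z-score above 3 (spot signal-to-noise against the whole library), a score well above that on a control array, and duplicate spots agreeing (coefficient of variation under 100). The data file gives only the calls; its cut-offs may differ, and compounds hitting several targets are kept. A missing hit is not proof of no binding, and a hit is not a measured affinity.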
“hit” means called a hit, “no hit” means screened and not called a hit.
This is an unselected part of the compounds tested.
A target missing from an entry has no call listed here.

Targets (5′ to 3′):
SAM-II: SAM-II riboswitch RNA pseudoknot, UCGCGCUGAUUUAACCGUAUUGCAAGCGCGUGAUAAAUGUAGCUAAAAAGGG. Hit rate about 1% of about 21,000 compounds.
PreQ1: PreQ1 riboswitch RNA pseudoknot, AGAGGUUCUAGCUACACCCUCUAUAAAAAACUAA. From B. subtilis. Hit rate about 0.7% of about 24,000 compounds.
TPP: TPP riboswitch RNA three-way junction, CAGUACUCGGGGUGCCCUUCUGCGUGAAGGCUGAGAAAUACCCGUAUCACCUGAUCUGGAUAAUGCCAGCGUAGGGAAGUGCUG. Hit rate about 0.7% of about 24,000 compounds.

- COc1cccc(-c2ccccc2NC(=O)N2CCOCC(CO)C2)c1 (stereo not given) | SAM-II: no hit; PreQ1: no hit; TPP: no hit
- Nc1n[nH]cc1-c1nnc(-c2ccccc2)o1 | SAM-II: no hit; PreQ1: no hit; TPP: no hit
- COc1ccc(CC2NCCc3cc(OC)c(OC)cc32)cc1OC (stereo not given) | SAM-II: no hit; PreQ1: no hit; TPP: no hit
- CCN1CCCC1CNc1cc(N2CCOCC2)nc(N)n1 (stereo not given) | SAM-II: no hit; PreQ1: no hit; TPP: no hit
- CC(=O)Nc1ccc([C@H](C)C(=O)Nc2ncc(C(C)C)s2)cc1 | SAM-II: no hit; PreQ1: no hit; TPP: no hit
- COc1cc(C)c(CN2CCN(c3cc(N)nc(N)n3)CC2)cc1C | SAM-II: no hit; PreQ1: no hit; TPP: no hit
- Cc1[nH]nc2c1C1(CCN(C(=O)c3ccccc3)CC1)C(C#N)=C(N)O2 | SAM-II: no hit; PreQ1: no hit; TPP: no hit
- Cc1cc(C)n(Cc2cccc(C(=O)N[C@H]3CC[C@H]3NC3CCCCC3)c2)n1 | SAM-II: no hit; PreQ1: no hit; TPP: no hit
- COCCCOc1ccnc(CS(=O)c2nc3ccccc3[n-]2)c1C (stereo not given) | SAM-II: no hit; PreQ1: no hit; TPP: no hit
- Cc1ccc(-c2nnc(CNCCSc3nnnn3C)o2)n1C | SAM-II: no hit; PreQ1: no hit; TPP: no hit
- Cc1nonc1OCCNCc1nc(-c2ccco2)no1 | SAM-II: no hit; PreQ1: no hit; TPP: no hit
- C[C@@]1(O)CCN(C(=O)C2(c3ccc(S(C)(=O)=O)cc3)CCC2)C[C@@H]1O | SAM-II: no hit; PreQ1: no hit; TPP: no hit
- CCc1ccccc1OCCNC[C@@H]1CCCO1 | SAM-II: no hit; PreQ1: no hit; TPP: no hit
- COc1ccc(-c2csc(C3=C(N)N(C4CCCCCCC4)CC3=O)n2)cc1 | PreQ1: no hit; TPP: no hit
- Clc1ccc(-c2noc3ncnc(NCCC4=CCCCC4)c23)cc1 | SAM-II: no hit; PreQ1: no hit; TPP: no hit
- Cc1[nH]nc2c1C(c1ccc(O)cc1)C(C#N)=C(N)O2 (stereo not given) | SAM-II: no hit; PreQ1: no hit; TPP: no hit
- c1ccc(CSc2nnc3c4ccccc4c4ccccc4c3n2)cc1 | SAM-II: no hit; PreQ1: no hit; TPP: no hit
- Cc1[nH]nc2c1C1(CN3CCC1CC3)C(C#N)=C(N)O2 (stereo not given) | SAM-II: no hit; PreQ1: no hit; TPP: no hit
- O=C(O)CC(C(=O)O)N1C(=O)C(=C2C(=O)Nc3ccc(Br)cc32)SC1=S (stereo not given) | SAM-II: no hit; PreQ1: no hit; TPP: no hit
- O=C(c1ccc(-c2ccc(CO)cc2)nc1)N1CCCC(c2ccccc2)CC1 (stereo not given) | SAM-II: no hit; PreQ1: no hit; TPP: no hit
- Cn1c(=O)c2[nH]cnc2n(C)c1=O | SAM-II: no hit; PreQ1: no hit; TPP: no hit
- CN(C)C(C(=O)N(CCO)Cc1ccc(F)cc1)c1cccc(F)c1 (stereo not given) | SAM-II: no hit; PreQ1: no hit; TPP: no hit
- COc1ccc2c(c1)C(NC(=O)c1noc(C)c1CO)CC(C)(C)O2 (stereo not given) | SAM-II: no hit; PreQ1: no hit; TPP: no hit
- Cc1ccccc1-c1noc(-c2cccnc2NC2CCCC2)n1 | PreQ1: no hit; TPP: no hit
- Nc1ccccc1C(=O)NCCc1ccccc1 | SAM-II: no hit; PreQ1: no hit; TPP: no hit
- CC1=C2C[C@@H]3[C@@H](CC=C4C[C@@H](O)CC[C@@]43C)[C@@H]2CC[C@]12O[C@H]1C[C@H](C)CN[C@H]1[C@H]2C | SAM-II: no hit; PreQ1: no hit; TPP: no hit
- CC1(C)CC2(CC(C)(C)N1)OC(=O)N(CCCO)C2(C)O (stereo not given) | SAM-II: no hit; PreQ1: no hit; TPP: no hit
- CC(=O)N1CCN(Cc2cc3ccccc3o2)CC(O)C1 (stereo not given) | SAM-II: no hit; PreQ1: no hit; TPP: no hit
- CCC(CO)N(Cc1ccco1)C(=O)c1c(C)[nH]c(C(C)=O)c1C (stereo not given) | SAM-II: no hit; PreQ1: no hit; TPP: no hit
- CCOc1ccc(-c2noc(-c3nnn(-c4ccccc4F)c3N)n2)cc1 | PreQ1: no hit; TPP: no hit
- Nc1c2c(nc3c4c(nn13)CCC4)CCC2 | PreQ1: no hit; TPP: no hit
- O=C1c2ccccc2C(O)(c2ncc[nH]2)N1CCO (stereo not given) | SAM-II: no hit; PreQ1: no hit; TPP: no hit
- CCc1cc(C(=O)O)c2c(c1)C(C)CC(C)(C)N2 (stereo not given) | SAM-II: no hit; PreQ1: no hit; TPP: no hit
- Nc1nonc1-c1noc(COc2ccc(Cl)cc2)n1 | SAM-II: no hit; PreQ1: no hit; TPP: no hit
- NC1CCCCN(Cc2cc3ccccc3o2)C1 (stereo not given) | SAM-II: no hit; PreQ1: no hit; TPP: no hit
- COCCCNc1oc(-c2ccc(S(=O)(=O)N(C)C)cc2)nc1C#N | PreQ1: no hit; TPP: no hit
- CCOCCN1CCN(C(=O)c2cccc(NCc3ccc(C)cc3)c2)CC1 | SAM-II: no hit; PreQ1: no hit; TPP: no hit
- CCOc1ccccc1NCc1nnc(-c2ccccc2)o1 | PreQ1: no hit; TPP: no hit
- CCCn1cnc2c(=S)nc(N)[nH]c21 | SAM-II: no hit; PreQ1: no hit; TPP: no hit
- Cc1ccc(C)c(NC(=O)Cn2c(-c3nonc3N)nc3ccccc32)c1 | SAM-II: no hit; PreQ1: no hit; TPP: no hit
- c1ccc(CCN2CCC(C3CCNCC3)C2)cc1 (stereo not given) | SAM-II: no hit; PreQ1: no hit; TPP: no hit
- CCOC(=O)C(C)Oc1cccc2c(=O)n(CC(=O)Nc3ccc4c(c3)OCCO4)ccc12 (stereo not given) | SAM-II: no hit; PreQ1: no hit; TPP: no hit

4 of the entries, repeated:

{"compound": "C[C@@]1(O)CCN(C(=O)C2(c3ccc(S(C)(=O)=O)cc3)CCC2)C[C@@H]1O", "SAM-II": "no hit", "PreQ1": "no hit", "TPP": "no hit"}
{"compound": "CCOCCN1CCN(C(=O)c2cccc(NCc3ccc(C)cc3)c2)CC1", "SAM-II": "no hit", "PreQ1": "no hit", "TPP": "no hit"}
{"compound": "Cc1ccc(-c2nnc(CNCCSc3nnnn3C)o2)n1C", "SAM-II": "no hit", "PreQ1": "no hit", "TPP": "no hit"}
{"compound": "CC(=O)N1CCN(Cc2cc3ccccc3o2)CC(O)C1", "stereo": "stereo not given", "SAM-II": "no hit", "PreQ1": "no hit", "TPP": "no hit"}